Experimental data reported in publication PMC11761745.
These are yes or no findings as the source states them, for the method shown. Binding seen in cells or lysates may run through a third protein. Some entries that bind do so weakly or less than the wild type.

Target: Fat mass and obesity-associated protein (FTO) (human (endogenous in KG1a)) (UniProt Q9C0B1)
Assay: co-IP; KG1a cell lysate incubated with anti-FTO antibody overnight at 4 °C, protein A/G agarose 12 h at 4 °C, PBS wash, Western blotting

binding: binds
B1: O-GlcNAc transferase (OGT) (enzyme, UniProt O15294 1-1046)
chain: MASSVGNVADSTEPTKRMLSFQGLAELAHREYQAGDFEAAERHCMQLWRQEPDNTGVLLLLSSIHFQCRRLDRSAHFSTLAIKQNPLLAEAYSNLGNVYKERGQLQEAIEHYRHALRLKPDFIDGYINLAAALVAAGDMEGAVQAYVSALQYNPDLYCVRSDLGNLLKALGRLEEAKACYLKAIETQPNFAVAWSNLGCVFNAQGEIWLAIHHFEKAVTLDPNFLDAYINLGNVLKEARIFDRAVAAYLRALSLSPNHAVVHGNLACVYYEQGLIDLAIDTYRRAIELQPHFPDAYCNLANALKEKGSVAEAEDCYNTALRLCPTHADSLNNLANIKREQGNIEEAVRLYRKALEVFPEFAAAHSNLASVLQQQGKLQEALMHYKEAIRISPTFADAYSNMGNTLKEMQDVQGALQCYTRAIQINPAFADAHSNLASIHKDSGNIPEAIASYRTALKLKPDFPDAYCNLAHCLQIVCDWTDYDERMKKLVSIVADQLEKNRLPSVHPHHSMLYPLSHGFRKAIAERHGNLCLDKINVLHKPPYEHPKDLKLSDGRLRVGYVSSDFGNHPTSHLMQSIPGMHNPDKFEVFCYALSPDDGTNFRVKVMAEANHFIDLSQIPCNGKAADRIHQDGIHILVNMNGYTKGARNELFALRPAPIQAMWLGYPGTSGALFMDYIITDQETSPAEVAEQYSEKLAYMPHTFFIGDHANMFPHLKKKAVIDFKSNGHIYDNRIVLNGIDLKAFLDSLPDVKIVKMKCPDGGDNADSSNTALNMPVIPMNTIAEAVIEMINRGQIQITINGFSISNGLATTQINNKAATGEEVPRTIIVTTRSQYGLPEDAIVYCNFNQLYKIDPSTLQMWANILKRVPNSVLWLLRFPAVGEPNIQQYAQNMGLPQNRIIFSPVAPKEEHVRRGQLADVCLDTPLCNGHTTGMDVLWAGTPMVTMPGETLASRVAASQLTCLGCLELIAKNRQEYEDIAVKLGTDLEYLKKVRGKVWKQRISSPLFNTKQYTMELERLYLQMWEHYAAGNKPDHMIKPVEVTESA
